The values below come from article PMC6661766, “Antimicrobial, antioxidant and cytotoxic evaluation of diazenyl chalcones along with insights to mechanism of interaction by molecular docking studies” (BMC Chemistry, 2019).

In this series the test system is A549 human lung cancer cell line. The experiment in a line: MTT cytotoxicity assay, A549. The series is classed as cell-based. The following applies: IC50 ratio of normal cell line to carcinoma cell line. The protocol:
The cell lines employed in the investigation were purchased from the National Centre for Cell Sciences (NCCS), Pune, India. The cell lines were cultured in DMEM fortified with 10% FBS, L-glutamine, sodium bicarbonate, and solution of antibiotics (streptomycin 100 μg ml^−1 + penicillin-100 U ml^−1). The culture of cell lines was stored under 5% CO2 incubation at 37 °C.
The compounds showing maximum activity (antimicrobial and antioxidant potential) were screened for cytotoxicity against A549 and HEK cell lines using MTT assay. Initially, 96-well microculture plate was seeded with 1 × 10^4 cells in 100 µl/well DMEM/MEM, supplemented with 10% FBS followed by incubation at a temperature of 37 °C for a period of 24 h under 5% CO2 atmosphere. After that, the test compounds and camptothecin were added to the cells to achieve a concentration of 10, 25, 50 and 100 µg. MTT reagent (10 µl) of concentration of 5 mg ml^−1 added to all the wells after the duration of 48 h. The plate was incubated further for 4 h followed by careful removal of supernatant from each well. To dissolve the formazan crystals, 100 µl of DMSO was added, and the ELISA reader was used to check the absorbance at 570 nm wavelength. In order to calculate the IC50 concentration, the following equation, i.e. A = Bx + C, was used. In this case, A = 50, while the values B and C values were obtained from the survival curve plot. This study was carried out in duplicate.
In general terms: Formazan colour is commonly taken as a measure of viable cells.
On to `O=C(/C=C\c1ccc(Cl)cc1Cl)c1cccc(N=Nc2cccc(Cl)c2Cl)c1O` [Compound C-19, (2Z)-3-(2,4-Dichlorophenyl)-1-(3-((2,3-dichlorophenyl)diazenyl)-2-hydroxyphenyl)prop-2-en-1-one], for which the “Ratio (HEK/A549)” value was found to be 1.58. In the case of `O=C(/C=C\c1cc(Br)ccc1O)c1ccc(N=Nc2ccc([N+](=O)[O-])cc2Cl)c(O)c1` [Compound C-22, (2Z)-3-(5-Bromo-2-hydroxyphenyl)-1-(4-((2-chloro-4-nitrophenyl)diazenyl)-3-hydroxyphenyl) prop-2-en-1-one] it was 1.90.

`O=Cc1ccc(/C=C\C(=O)c2ccc(N=Nc3c(O)cccc3O)cc2)cc1` [Compound C-23, 4-((1Z)-3-(4-((2,6-Dihydroxyphenyl)diazenyl)phenyl)-3-oxoprop-1-en-1-yl)benzaldehyde]: the “Ratio (HEK/A549)” value worked out at 1.11. Take `O=C(/C=C\c1ccco1)c1ccc(N=Nc2c(O)cccc2O)cc1` [Compound C-24, (2Z)-1-(4-((2,6-Dihydroxyphenyl)diazenyl)phenyl)-3-(furan-2-yl)prop-2-en-1-one]: the “Ratio (HEK/A549)” value is 2.59. In the case of `O=Cc1ccc(/C=C\C(=O)c2cccc(N=Nc3cccc(Cl)c3Cl)c2O)cc1` [Compound C-25, 4-((1Z)-3-(3-((2,3-Dichlorophenyl)diazenyl)-2-hydroxyphenyl)-3-oxoprop-1-en-1-yl)benzaldehyde], the “Ratio (HEK/A549)” value is 15. `COc1ccccc1/C=C\C(=O)c1ccc(N=Nc2c(O)cccc2O)cc1` [Compound C-27, (2Z)-1-(4-((2,6-Dihydroxyphenyl)diazenyl)phenyl)-3-(2-methoxyphenyl)prop-2-en-1-one]: the “Ratio (HEK/A549)” value is given as 2.67. `CC[C@@]1(O)C(=O)OCc2c1cc1n(c2=O)Cc2cc3ccccc3nc2-1` [Std, camptothecin, reference compound]: the “Ratio (HEK/A549)” value is recorded as 1.03.
